The source of these data is the GenesisPotency data set.

The chains behind the UniProt entries cited, without tags or fusion partners. A line that says so, or that is headed by a name, gives the form on record, which may keep a tag or linker.
UniProt P27695, as listed by the source: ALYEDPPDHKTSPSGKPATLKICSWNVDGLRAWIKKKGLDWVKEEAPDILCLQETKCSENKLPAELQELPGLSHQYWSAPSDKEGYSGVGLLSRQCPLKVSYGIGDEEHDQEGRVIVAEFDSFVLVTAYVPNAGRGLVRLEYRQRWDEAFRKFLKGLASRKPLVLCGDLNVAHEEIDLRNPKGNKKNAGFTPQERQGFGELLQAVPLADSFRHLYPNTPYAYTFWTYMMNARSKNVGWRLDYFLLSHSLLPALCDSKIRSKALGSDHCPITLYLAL

The campaign covered roughly 350,000 compounds. About 1,200 (0.34%) were called active. Inconclusive results (about 3%) are left out. The call rests on the fitted dose curve; in most records, active means well fitted inhibition curve with a large enough effect; inconclusive means small, poorly fitted or top-dose-only effect; inactive means no such curve, though single readings can be large or run the other way. The list shows a part of the results.

For the experiment, the target named is DNA repair nuclease/redox regulator APEX1, Homo sapiens (UniProt P27695). Description: qHTS Assay for Inhibitors of the Human Apurinic/apyrimidinic Endonuclease 1 (APE1). Background: Quantitative high-throughput screening tests each substance at several concentrations.
`CCCC[N+](CCCC)(CCCC)CCCC.O=c1ccn([C@@H]2O[C@H](COS(=O)(=O)[O-])[C@@H](O)[C@H]2O)c(=O)[nH]1`: the outcome was inactive.
